A short description of the data set: peptide synthesis. The following applies: late stage modification step.
The mark [1] stands for this setting: calculated from HPLC area intensity.

Turning to “BocHN-Leu Ile Cys(Acm)Asp Ser Arg Val Leu Glu Arg Tyr Leu Leu Glu Ala Lys(Boc)Glu Ala Glu Asn Ile Thr Thr Gly-SCH2CH2SO3”, the step yield entry (on HPLC) is listed as “unknown yield, about 70% on HPLC”.
Regarding Ac-Val Tyr Ala Ser-NHC(NH)NHAc, the step yield (from HPLC area intensity) was 70%.
In the case of Ac-Val Tyr Ala Lys Cys (C(S)OPh)Gly-OH, the step yield came out at 94%.
For Ac-Val Tyr Ala Phe Cys (C(S)OPh) Gly-OH, the step yield amounted to 84%.
For Ac-Val Tyr Ala Lys(Boc)-NHC (NH)NHAc, the step yield under setting [1] is on record as 70%.
As to Ac-Val Tyr Ala Ala Cys(C(S)OPh)Gly-OH, the step yield is listed as 88%.
On the same count and under the same terms, under Ac-Val Tyr Ala Ser Cys(C(S)OPh)Gly-OH stands 92%.
Ac-Val Tyr Ala Leu Cys(C(S)OPh)Gly-OH: the step yield is listed as 92%.
Regarding Ac-Val Tyr Ala Ala-NHC(NH)NHAc, the step yield under setting [1] is 80%.

(Values after US9127041 (dated 2015).)
